{
  "sequences": {"note": "Protein sequences, listed by entry. Tags and fused reporters are not part of them.", "CALR, P27797, UniProt P27797, whole entry": "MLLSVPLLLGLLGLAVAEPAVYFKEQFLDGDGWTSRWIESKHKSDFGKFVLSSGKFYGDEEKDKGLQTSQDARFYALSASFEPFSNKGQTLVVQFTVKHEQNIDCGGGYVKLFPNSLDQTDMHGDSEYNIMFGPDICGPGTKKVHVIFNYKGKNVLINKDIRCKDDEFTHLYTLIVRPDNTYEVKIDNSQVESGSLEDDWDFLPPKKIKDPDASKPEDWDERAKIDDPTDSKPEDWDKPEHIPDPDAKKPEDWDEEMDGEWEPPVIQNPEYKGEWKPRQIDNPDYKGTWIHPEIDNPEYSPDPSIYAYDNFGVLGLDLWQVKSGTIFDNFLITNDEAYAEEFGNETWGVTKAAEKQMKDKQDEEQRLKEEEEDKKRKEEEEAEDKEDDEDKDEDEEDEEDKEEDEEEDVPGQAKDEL", "PPP2R5D, Q14738, UniProt Q14738, whole entry": "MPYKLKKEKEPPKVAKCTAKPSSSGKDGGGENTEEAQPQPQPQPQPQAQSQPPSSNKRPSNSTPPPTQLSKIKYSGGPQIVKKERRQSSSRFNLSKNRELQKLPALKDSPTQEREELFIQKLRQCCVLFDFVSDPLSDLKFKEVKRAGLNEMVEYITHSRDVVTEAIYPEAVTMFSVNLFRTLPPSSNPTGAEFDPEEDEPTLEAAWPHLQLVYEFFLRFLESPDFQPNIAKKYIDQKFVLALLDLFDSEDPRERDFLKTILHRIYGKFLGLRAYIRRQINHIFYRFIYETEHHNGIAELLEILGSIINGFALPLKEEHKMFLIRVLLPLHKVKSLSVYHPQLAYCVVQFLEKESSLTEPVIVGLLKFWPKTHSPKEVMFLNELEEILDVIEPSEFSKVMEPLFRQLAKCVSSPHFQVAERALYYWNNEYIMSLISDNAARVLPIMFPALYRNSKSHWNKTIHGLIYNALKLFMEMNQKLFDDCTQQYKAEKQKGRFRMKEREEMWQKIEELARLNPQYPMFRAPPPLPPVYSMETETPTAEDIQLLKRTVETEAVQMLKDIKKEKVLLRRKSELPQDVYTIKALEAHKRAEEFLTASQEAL"},
  "source": "the supplement of paper PMC10032668",
  "binders": {"B1": {"name": "PEX2 (peptide)", "chain": "SSLEGAAGTGKRDLQ"}},
  "experiment_in_all_cases": "PRISMA enrichment of interactor (LFQ) in peptide spot vs all other peptide spots (log2 fold change); higher = stronger / more specific binding of the interactor to the peptide",
  "key": {"ABCF3, Q9NUQ8": {"target": "ABCF3, Q9NUQ8", "protocol": "(§1)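 PRISMA: 15-aa overlapping tiles (offset 8 aa) of 60 microproteins, plus SOS1/GLUT1 control peptides, were spot-synthesized on cellulose membranes in triplicate. Membranes were incubated with benzonase-treated HEK293T lysate, and bound proteins were identified by LC-MS/MS with LFQ. Enrichment is the log2 fold change of each protein in one spot versus all other spots. Only interactors passing the significance cutoff are listed.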"}, "ACTL6A, O96019": {"target": "ACTL6A, O96019", "protocol": "as §1"}, "ACTR2, P61160": {"target": "ACTR2, P61160", "protocol": "as §1"}, "ADNP, Q9H2P0": {"target": "ADNP, Q9H2P0", "protocol": "as §1"}, "BCOR, Q6W2J9": {"target": "BCOR, Q6W2J9", "protocol": "as §1"}, "BLM, P54132": {"target": "BLM, P54132", "protocol": "as §1"}, "BTF3, P20290": {"target": "BTF3, P20290", "protocol": "as §1"}, "C1orf131, Q8NDD1": {"target": "C1orf131, Q8NDD1", "protocol": "as §1"}, "CALR, P27797": {"target": "CALR, P27797", "protocol": "as §1"}, "CCDC59, Q9P031": {"target": "CCDC59, Q9P031", "protocol": "as §1"}, "CENPB, P07199": {"target": "CENPB, P07199", "protocol": "as §1"}, "CGN, Q9P2M7": {"target": "CGN, Q9P2M7", "protocol": "as §1"}, "DDX49, Q9Y6V7": {"target": "DDX49, Q9Y6V7", "protocol": "as §1"}, "DHCR7, Q9UBM7": {"target": "DHCR7, Q9UBM7", "protocol": "as §1"}, "DPM3, Q9P2X0": {"target": "DPM3, Q9P2X0", "protocol": "as §1"}, "DSC1, Q08554": {"target": "DSC1, Q08554", "protocol": "as §1"}, "EEF1AKNMT, Q8N6R0": {"target": "EEF1AKNMT, Q8N6R0", "protocol": "as §1"}, "EXOSC10, Q01780": {"target": "EXOSC10, Q01780", "protocol": "as §1"}, "FIP1L1, Q6UN15": {"target": "FIP1L1, Q6UN15", "protocol": "as §1"}, "HP, P00738": {"target": "HP, P00738", "protocol": "as §1"}, "KTI12, Q96EK9": {"target": "KTI12, Q96EK9", "protocol": "as §1"}, "LENG1, Q96BZ8": {"target": "LENG1, Q96BZ8", "protocol": "as §1"}, "MAGEB2, O15479": {"target": "MAGEB2, O15479", "protocol": "as §1"}, "MBNL1, Q9NR56": {"target": "MBNL1, Q9NR56", "protocol": "as §1"}, "MCM10, Q7L590": {"target": "MCM10, Q7L590", "protocol": "as §1"}, "MPO, P05164": {"target": "MPO, P05164", "protocol": "as §1"}, "MUC19, Q7Z5P9": {"target": "MUC19, Q7Z5P9", "protocol": "as §1"}, "NCLN, Q969V3": {"target": "NCLN, Q969V3", "protocol": "as §1"}, "NHP2, Q9NX24": {"target": "NHP2, Q9NX24", "protocol": "as §1"}, "NQO2, P16083": {"target": "NQO2, P16083", "protocol": "as §1"}, "OPA1, O60313": {"target": "OPA1, O60313", "protocol": "as §1"}, "PDCD6IP, Q8WUM4": {"target": "PDCD6IP, Q8WUM4", "protocol": "as §1"}, "PDIA3, P30101": {"target": "PDIA3, P30101", "protocol": "as §1"}, "PPP2R5D, Q14738": {"target": "PPP2R5D, Q14738", "protocol": "as §1"}, "PRPF8, Q6P2Q9": {"target": "PRPF8, Q6P2Q9", "protocol": "as §1"}, "PTMS, P20962": {"target": "PTMS, P20962", "protocol": "as §1"}, "RACGAP1, Q9H0H5": {"target": "RACGAP1, Q9H0H5", "protocol": "as §1"}, "RAPGEF2, Q9Y4G8": {"target": "RAPGEF2, Q9Y4G8", "protocol": "as §1"}, "RBM28, Q9NW13": {"target": "RBM28, Q9NW13", "protocol": "as §1"}, "RCN1, Q15293": {"target": "RCN1, Q15293", "protocol": "as §1"}, "RRBP1, Q9P2E9": {"target": "RRBP1, Q9P2E9", "protocol": "as §1"}, "RRP1, P56182": {"target": "RRP1, P56182", "protocol": "as §1"}, "SERF1B, O75920": {"target": "SERF1B, O75920", "protocol": "as §1"}, "SOAT1, P35610": {"target": "SOAT1, P35610", "protocol": "as §1"}, "TALDO1, P37837": {"target": "TALDO1, P37837", "protocol": "as §1"}, "TPM3, P06753": {"target": "TPM3, P06753", "protocol": "as §1"}, "UBE2N, P61088": {"target": "UBE2N, P61088", "protocol": "as §1"}, "USP9X, Q93008": {"target": "USP9X, Q93008", "protocol": "as §1"}, "WDR11, Q9BZH6": {"target": "WDR11, Q9BZH6", "protocol": "as §1"}},
  "note": "The other results are listed elsewhere or left out. Only hits are listed; about a third recur on repeated control peptides.",
  "data": [
    {"binder": "B1", "values": [
      {"measurement": "PRISMA enrichment of interactor (log2)", "setting": "ABCF3, Q9NUQ8", "value": 3.9},
      {"measurement": "PRISMA enrichment of interactor (log2)", "setting": "ACTL6A, O96019", "value": 4.82},
      {"measurement": "PRISMA enrichment of interactor (log2)", "setting": "ACTR2, P61160", "value": 5.69},
      {"measurement": "PRISMA enrichment of interactor (log2)", "setting": "ADNP, Q9H2P0", "value": 5.54},
      {"measurement": "PRISMA enrichment of interactor (log2)", "setting": "BCOR, Q6W2J9", "value": 6.53},
      {"measurement": "PRISMA enrichment of interactor (log2)", "setting": "BLM, P54132", "value": 6.87},
      {"measurement": "PRISMA enrichment of interactor (log2)", "setting": "BTF3, P20290", "value": 4.44},
      {"measurement": "PRISMA enrichment of interactor (log2)", "setting": "C1orf131, Q8NDD1", "value": 6.02},
      {"measurement": "PRISMA enrichment of interactor (log2)", "setting": "CALR, P27797", "value": 5.09},
      {"measurement": "PRISMA enrichment of interactor (log2)", "setting": "CCDC59, Q9P031", "value": 5.73},
      {"measurement": "PRISMA enrichment of interactor (log2)", "setting": "CENPB, P07199", "value": 4.72},
      {"measurement": "PRISMA enrichment of interactor (log2)", "setting": "CGN, Q9P2M7", "value": 6.44},
      {"measurement": "PRISMA enrichment of interactor (log2)", "setting": "DDX49, Q9Y6V7", "value": 4.76},
      {"measurement": "PRISMA enrichment of interactor (log2)", "setting": "DHCR7, Q9UBM7", "value": 5.57},
      {"measurement": "PRISMA enrichment of interactor (log2)", "setting": "DPM3, Q9P2X0", "value": 4.36},
      {"measurement": "PRISMA enrichment of interactor (log2)", "setting": "DSC1, Q08554", "value": 5.18},
      {"measurement": "PRISMA enrichment of interactor (log2)", "setting": "EEF1AKNMT, Q8N6R0", "value": 5.23},
      {"measurement": "PRISMA enrichment of interactor (log2)", "setting": "EXOSC10, Q01780", "value": 6.09},
      {"measurement": "PRISMA enrichment of interactor (log2)", "setting": "FIP1L1, Q6UN15", "value": 4.88},
      {"measurement": "PRISMA enrichment of interactor (log2)", "setting": "HP, P00738", "value": 4.85},
      {"measurement": "PRISMA enrichment of interactor (log2)", "setting": "KTI12, Q96EK9", "value": 4.81},
      {"measurement": "PRISMA enrichment of interactor (log2)", "setting": "LENG1, Q96BZ8", "value": 6.23},
      {"measurement": "PRISMA enrichment of interactor (log2)", "setting": "MAGEB2, O15479", "value": 7.44},
      {"measurement": "PRISMA enrichment of interactor (log2)", "setting": "MBNL1, Q9NR56", "value": 3.97},
      {"measurement": "PRISMA enrichment of interactor (log2)", "setting": "MCM10, Q7L590", "value": 4.47},
      {"measurement": "PRISMA enrichment of interactor (log2)", "setting": "MPO, P05164", "value": 5.11},
      {"measurement": "PRISMA enrichment of interactor (log2)", "setting": "MUC19, Q7Z5P9", "value": 7.15},
      {"measurement": "PRISMA enrichment of interactor (log2)", "setting": "NCLN, Q969V3", "value": 6.55},
      {"measurement": "PRISMA enrichment of interactor (log2)", "setting": "NHP2, Q9NX24", "value": 14.7},
      {"measurement": "PRISMA enrichment of interactor (log2)", "setting": "NQO2, P16083", "value": 4.49},
      {"measurement": "PRISMA enrichment of interactor (log2)", "setting": "OPA1, O60313", "value": 6.7},
      {"measurement": "PRISMA enrichment of interactor (log2)", "setting": "PDCD6IP, Q8WUM4", "value": 4.78},
      {"measurement": "PRISMA enrichment of interactor (log2)", "setting": "PDIA3, P30101", "value": 5.74},
      {"measurement": "PRISMA enrichment of interactor (log2)", "setting": "PPP2R5D, Q14738", "value": 5.19},
      {"measurement": "PRISMA enrichment of interactor (log2)", "setting": "PRPF8, Q6P2Q9", "value": 5.82},
      {"measurement": "PRISMA enrichment of interactor (log2)", "setting": "PTMS, P20962", "value": 3.91},
      {"measurement": "PRISMA enrichment of interactor (log2)", "setting": "RACGAP1, Q9H0H5", "value": 6.69},
      {"measurement": "PRISMA enrichment of interactor (log2)", "setting": "RAPGEF2, Q9Y4G8", "value": 11.2},
      {"measurement": "PRISMA enrichment of interactor (log2)", "setting": "RBM28, Q9NW13", "value": 4.95},
      {"measurement": "PRISMA enrichment of interactor (log2)", "setting": "RCN1, Q15293", "value": 7.45},
      {"measurement": "PRISMA enrichment of interactor (log2)", "setting": "RRBP1, Q9P2E9", "value": 5.58},
      {"measurement": "PRISMA enrichment of interactor (log2)", "setting": "RRP1, P56182", "value": 11.1},
      {"measurement": "PRISMA enrichment of interactor (log2)", "setting": "SERF1B, O75920", "value": 3.78},
      {"measurement": "PRISMA enrichment of interactor (log2)", "setting": "SOAT1, P35610", "value": 4.32},
      {"measurement": "PRISMA enrichment of interactor (log2)", "setting": "TALDO1, P37837", "value": 4.99},
      {"measurement": "PRISMA enrichment of interactor (log2)", "setting": "TPM3, P06753", "value": 3.92},
      {"measurement": "PRISMA enrichment of interactor (log2)", "setting": "UBE2N, P61088", "value": 7.54},
      {"measurement": "PRISMA enrichment of interactor (log2)", "setting": "USP9X, Q93008", "value": 4.9},
      {"measurement": "PRISMA enrichment of interactor (log2)", "setting": "WDR11, Q9BZH6", "value": 6.09}
    ]}
  ]
}
